Measurements as given in PubChem BioAssay AID316 (DTP/NCI, 2004).
The list shows only some results of the screen, not a fair sample: it gathers tests that were run many times, whatever their T/C, doses with no T/C, and many T/C values between a quarter and a half above the control. Further doses and runs are listed elsewhere. T/C gives the treated animals as a percentage of the vehicle group. Some doses have a count of surviving animals in place of a T/C: the source holds a T/C of zero for them, seemingly a mark for toxic or unscored doses. Some doses without a T/C left all or most animals alive at the check, yet need not have been tolerated: the source hardly ever lists a survival T/C far under the control, and the zero likely stands for such cases as well. Counts of survivors are from the toxicity check (mostly the fifth day) where no day follows; animals may have died later. Schedule codes are those of the source, read here as Q, the interval in days (D) or hours (H), X, the number of doses. Some doses were run more than once; the values are given in rising order. Some schedule codes hold Z or #, which are not explained here. Signs of the kind (2×) stand for listed records that agree. Where survival is the endpoint, the PubChem record calls one and a half times the control and up active, and a quarter to a half above the control has no call in these data; cut-offs in other NCI protocols can differ. Some T/C values are followed by the survivors on the day toxicity was checked, most often the fifth; without a count, all were alive then.

System: P1534 leukemia ip, CD2F1 mice, survival T/C
Assay: NCI In Vivo Anticancer Drug Screen. Data for tumor model P1534 Leukemia (intraperitoneal) in CD2F1 (CDF1) mice
Conditions: T/C endpoint: mean survival time, higher T/C = longer survival
Experimental: The antitumor activity of compounds was measured in mice bearing transplantable tumors. Survival or tumor size were measured and the results are expressed as the measurement made in the treated group (T) divided by the measurement made in the vehicle treated control group (C). The tumor model used in this assay is P1534 Leukemia (intraperitoneal) in CD2F1 (CDF1) mice

[1] = dose: 300.0 micrograms/kg/injection, schedule: Q01DX015 (ip), vehicle: saline

CC[C@]1(O)C[C@H]2CN(CCc3c([nH]c4ccccc34)[C@@](C(=O)OC)(c3cc4c(cc3OC)N(C=O)[C@H]3[C@@](O)(C(=O)OC)[C@H](OC(C)=O)[C@]5(CC)C=CCN6CC[C@]43[C@@H]65)C2)C1
survivor count (dose: 0.06 mg/kg/injection, schedule: Q01DX010 (ip), vehicle: saline): 6 of 6 | T/C (dose: 0.09 mg/kg/injection, schedule: Q02DX008 (ip), vehicle: saline): 127 % of control | T/C (dose: 0.1 mg/kg/injection, schedule: Q## X004 (ip), vehicle: saline): 139 % of control | survivor count (dose: 0.12 mg/kg/injection, schedule: Q01DX010 (ip), vehicle: saline): 6 of 6 | T/C (dose: 0.16 mg/kg/injection, schedule: Q## X032 (ip), vehicle: saline, evaluated on day 45): 127 % of control | T/C (dose: 0.16 mg/kg/injection, schedule: Q## X032 (ip), vehicle: saline, evaluated on day 46): 139 % of control | T/C (dose: 0.25 mg/kg/injection, schedule: Q01DX001 (ip), vehicle: saline): 96 (2×), 97, 98 (3×), 102 (4×), 102 [4 of 6 alive], 103, 104, 107, 111, 112 % of control | T/C (dose: 0.25 mg/kg/injection, schedule: Q01DX001 (ip), vehicle: water): 230, 268, 276, 283, 304 [5 of 6 alive], 322 (2×), 329 % of control | T/C (dose: 0.5 mg/kg/injection, schedule: Q01DX001 (ip), vehicle: saline, evaluated on day 30): 93, 95, 98 (6×), 98 [5 of 6 alive], 100 (4×), 102, 103, 107 % of control | T/C (dose: 0.5 mg/kg/injection, schedule: Q01DX001 (ip), vehicle: saline, evaluated on day 46): 246 % of control | T/C (dose: 0.5 mg/kg/injection, schedule: Q01DX001 (ip), vehicle: water): 255, 268, 280, 297, 310, 318, 330, 341 % of control | T/C (dose: 1.0 mg/kg/injection, schedule: Q01DX001 (ip), vehicle: saline, evaluated on day 30): 87 [4 of 6 alive], 93 (2×), 94, 96, 98 (3×), 102 (6×), 103, 106 % of control | T/C (dose: 1.0 mg/kg/injection, schedule: Q01DX001 (ip), vehicle: saline, evaluated on day 46): 207 and 225 % of control | T/C (dose: 1.0 mg/kg/injection, schedule: Q01DX001 (ip), vehicle: water): 247, 266, 272, 285, 289, 305, 314, 331 % of control | survivor count (dose: 1.0 mg/kg/injection, schedule: Q02DX008 (ip), vehicle: saline): 5 of 10, 6 of 10, 9 of 10 | T/C (dose: 1.2 mg/kg/injection, schedule: Q## X004 (ip), vehicle: saline): 135 [8 of 9 alive] and 147 % of control | survivor count (dose: 1.2 mg/kg/injection, schedule: Q## X032 (ip), vehicle: saline): 4 of 10 and 10 of 10 | survivor count (dose: 1.5 mg/kg/injection, schedule: Q02DX008 (ip), vehicle: saline): 1 of 10 and 7 of 10 | survivor count (dose: 1.8 mg/kg/injection, schedule: Q## X004 (ip), vehicle: saline): 6 of 10 and 9 of 10 | survivor count (dose: 1.8 mg/kg/injection, schedule: Q## X032 (ip), vehicle: saline): 7 of 10 | T/C (dose: 2.0 mg/kg/injection, schedule: Q01DX001 (ip), vehicle: saline, evaluated on day 30): 86 [5 of 6 alive], 90 [5 of 6 alive], 91, 97, 98, 98 [5 of 6 alive], 101 (2×), 102 [5 of 6 alive], 105 % of control | T/C (dose: 2.0 mg/kg/injection, schedule: Q01DX001 (ip), vehicle: saline, evaluated on day 45): 141 % of control | T/C (dose: 2.0 mg/kg/injection, schedule: Q01DX001 (ip), vehicle: saline, evaluated on day 46): 178 and 227 % of control | survivor count (dose: 2.0 mg/kg/injection, schedule: Q01DX001 (ip), vehicle: saline): 4 of 6, 5 of 6, 6 of 6 | T/C (dose: 2.0 mg/kg/injection, schedule: Q01DX001 (ip), vehicle: water): 226, 249 [5 of 6 alive], 270, 272, 285 [5 of 6 alive], 308 [5 of 6 alive], 318, 333 % of control | survivor count (dose: 2.7 mg/kg/injection, schedule: Q## X004 (ip), vehicle: saline): 3 of 10 and 8 of 10 | T/C (dose: 2.9 mg/kg/injection, schedule: Q01DX001 (ip), vehicle: saline): 139 % of control | survivor count (dose: 3.0 mg/kg/injection, schedule: Q01DX001 (ip), vehicle: saline): 4 of 10 | survivor count (dose: 3.5 mg/kg/injection, schedule: Q01DX001 (ip), vehicle: saline): 2 of 10 and 5 of 10 (2×) | survivor count (dose: 4.0 mg/kg/injection, schedule: Q01DX001 (ip), vehicle: saline): 0 of 6, 1 of 6, 2 of 10, 2 of 6, 3 of 6, 7 of 10, 5 of 6 | T/C (dose: 40.0 micrograms/kg/injection, schedule: Q01DX010 (ip), vehicle: saline, evaluated on day 45): 155 % of control | T/C (dose: 40.0 micrograms/kg/injection, schedule: Q01DX010 (ip), vehicle: saline, evaluated on day 46): 131, 155, 184 % of control | T/C (dose: 60.0 micrograms/kg/injection, schedule: Q01DX010 (ip), vehicle: saline, evaluated on day 45): 126 % of control | T/C (dose: 60.0 micrograms/kg/injection, schedule: Q01DX010 (ip), vehicle: saline, evaluated on day 46): 162, 173, 223 % of control | T/C (dose: 60.0 micrograms/kg/injection, schedule: Q01DX015 (ip), vehicle: saline): 133 % of control [9 of 10 alive] | T/C (dose: 90.0 micrograms/kg/injection, schedule: Q01DX010 (ip), vehicle: saline, evaluated on day 45): 158 % of control | T/C (dose: 90.0 micrograms/kg/injection, schedule: Q01DX010 (ip), vehicle: saline, evaluated on day 46): 209, 247, 251 % of control | T/C (dose: 135.0 micrograms/kg/injection, schedule: Q01DX010 (ip), vehicle: saline, evaluated on day 45): 181 % of control | T/C (dose: 135.0 micrograms/kg/injection, schedule: Q01DX010 (ip), vehicle: saline, evaluated on day 46): 220, 237, 258 % of control | T/C (dose: 200.0 micrograms/kg/injection, schedule: Q01DX010 (ip), vehicle: saline, evaluated on day 45): 180 % of control | T/C (dose: 200.0 micrograms/kg/injection, schedule: Q01DX010 (ip), vehicle: saline, evaluated on day 46): 244, 246, 298 % of control | T/C [1]: 128 % of control [9 of 10 alive] | survivor count [1]: 10 of 10 | survivor count (dose: 450.0 micrograms/kg/injection, schedule: Q01DX010 (ip), vehicle: saline): 6 of 10 | survivor count (dose: 450.0 micrograms/kg/injection, schedule: Q01DX015 (ip), vehicle: saline): 7 of 10 | survivor count (dose: 670.0 micrograms/kg/injection, schedule: Q01DX015 (ip), vehicle: saline): 2 of 10
